Results reported in PMC11016466.
These are yes or no findings as the source states them, for the method shown. In cells and extracts the contact can be indirect.

Target: T1, Ran GTPase activating protein 1 (human (endogenous in DLD1)) (UniProt P46060)
T1 sequence: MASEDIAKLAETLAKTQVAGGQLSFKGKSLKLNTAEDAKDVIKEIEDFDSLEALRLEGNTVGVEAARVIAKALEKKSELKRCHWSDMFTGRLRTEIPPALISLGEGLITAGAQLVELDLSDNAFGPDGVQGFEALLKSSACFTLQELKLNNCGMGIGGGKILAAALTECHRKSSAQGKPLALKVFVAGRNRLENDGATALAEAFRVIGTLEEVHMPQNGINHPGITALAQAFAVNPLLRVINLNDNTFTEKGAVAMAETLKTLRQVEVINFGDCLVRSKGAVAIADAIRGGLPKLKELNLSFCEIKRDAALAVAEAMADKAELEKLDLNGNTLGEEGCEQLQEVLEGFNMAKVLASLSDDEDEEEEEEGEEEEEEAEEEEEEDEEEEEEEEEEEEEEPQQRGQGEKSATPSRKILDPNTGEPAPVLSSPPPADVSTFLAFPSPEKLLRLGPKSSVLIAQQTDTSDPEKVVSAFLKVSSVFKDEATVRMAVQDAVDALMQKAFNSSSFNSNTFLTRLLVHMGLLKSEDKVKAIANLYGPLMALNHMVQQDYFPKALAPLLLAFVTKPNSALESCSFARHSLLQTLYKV
Experiment: co-IP; total proteins of DLD1 cells immunoprecipitated with an anti-RanGAP1 antibody; blot for CRABP2 (Fig. S5C)

B1: cellular retinoic acid-binding protein 2 (protein, UniProt P29373 1-138)
chain: MPNFSGNWKIIRSENFEELLKVLGVNVMLRKIAVAAASKPAVEIKQEGDTFYIKTSTTVRTTEINFKVGEEFEEQTVDGRPCKSLVKWESENKMVCEQKLLKGEGPKTSWTRELTNDGELILTMTADDVVCTRVYVRE
- binding: no binding
